In all, about 52,000 sequences went through this assay and about 210 (0.4%) were called active.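 Rule for the calls: active = gene whose silencing raises cell survival under the drug, median off-target-corrected z-score across its silencing RNAs 2 or more; inactive = the rest.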 This is one part of the list.
Assay: Resistance to Poly (ADP-Ribose) Polymerase inhibitor: Gene Identification via Genome-wide siRNA Screen
Settings: mouse BRCA2 R2336H ES cells, olaparib, CellTiter-Glo viability; stronger effect = higher value
Procedure, shortened: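 Genome-wide siRNA screen (3 siRNAs/gene, 20 nM) in mouse ES cells carrying hypomorphic BRCA2 R2336H; olaparib 500 nM added 48 h post-transfection, CellTiter-Glo viability 72 h later. Normalized to plate-median negative control; MAD z-scores, gene median, seed-adjusted.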

Sequence	z-score
GGAAAAGUGGCUUUCAUUATT against Decr1	inactive: -0.378
CCUAGCCUAGCUUGGAGAGTT against Fbxl12	inactive: -0.0387
GGCUGCUAUCAUGGAAUUATT against Ppp2cb	inactive: -0.876
CGUAGCUAUUCUGGUUGUCTT against H2-Q6	inactive: -1.18
GGAAGAGAUAUCUGAACUUTT against 1110030H02Rik	inactive: 2.17
GGGAGCAGUCUUCCCUCAUTT against Cox8a	inactive: -1.35
GGAAAGAACGACCAUAUUUTT against Pik3cb	inactive: -0.501
GCUUCGAGAACUUUCUCCCTT against Nrtn	inactive: 0.164
GCAAGUGCACAUUAACCGGTT against Ptprr	inactive: 0.916
GGCGGAAAUUGUGAAGAGGTT against Aes	inactive: -2.11
GUUCGGUACAACUUUUCUGTT against Alx4	inactive: 0.749
CGACAUCGAAGACAUGCUCTT against Srebf1	inactive: 0.194
CGAUCUAUAUGAUGGGUGUTT against Olfr609	inactive: 0.862
GGUACAACUGCUCAUUUUUTT against 4930418P06Rik	inactive: -0.202
GGUCAAAAACCACAGAAUATT against Mobk1b	inactive: 0.382
GGAGCAGGAAUCAUUGACGTT against Chi3l3	inactive: 0.454
GGAAAAGCAGAGAAGAUAUTT against 6620401K05Rik	inactive: -3.29
GGUUUCGUAUAAAUUCUCUTT against Ank	inactive: -0.243
CCAUUCGGACCAAAGUGUATT against 4930563C04Rik	inactive: -1.48
GGUUGGUUAAUCCAACCAGTT against Fprl1	inactive: 1.54
GGACUAAGCCUGAAUGUGUTT against Zdhhc5	inactive: -0.814
GGAUGACUUGAUUAUCUUUTT against Adrm1	inactive: 0.0749
CGUUUUCACAUUCGGUGGATT against Akp2	inactive: -0.0494
GGCACUUAAGUUUCAUAAGTT against Qars	inactive: -0.32
GGAAAUCGAUAGUUUCUUCTT against Olfr1302	inactive: 0.458
GCCUUGACCUGAUUUCUACTT against Tas2r131	inactive: -0.0568
GGUGCCCUACAGUGAGAUATT against Rpl13	inactive: -2.33
GGCGGGUACAUAAGAAUCUTT against Tusc2	inactive: 1.83
GGAGUCUGUGGAUAGUGUATT against Creb1	inactive: -1.74

A run of entries from the list above, as a working copy:
Sequence	z-score
GGAUGACUUGAUUAUCUUUTT against Adrm1	inactive: 0.0749
CGUUUUCACAUUCGGUGGATT against Akp2	inactive: -0.0494
GGCACUUAAGUUUCAUAAGTT against Qars	inactive: -0.32
GGAAAUCGAUAGUUUCUUCTT against Olfr1302	inactive: 0.458
GCCUUGACCUGAUUUCUACTT against Tas2r131	inactive: -0.0568
GGUGCCCUACAGUGAGAUATT against Rpl13	inactive: -2.33
GGCGGGUACAUAAGAAUCUTT against Tusc2	inactive: 1.83
GGAGUCUGUGGAUAGUGUATT against Creb1	inactive: -1.74

— PubChem BioAssay AID1347423 (Functional Genomics Laboratory (NCATS/FGL), 2020)
